Percent effect of library compounds

Results are given as percent effect. The record does not define 0% and 100%; most values in the screen are far below 50% and negative numbers occur (in some assays of this library far below -100). Compounds were drawn at random from those tested, without regard to their results. Two or more numbers in one place are separate tests of the same structure; such repeats can differ widely.

Mtb cholesterol medium: 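Phenotypic screen: M. tuberculosis growth, cholesterol and DPPC medium, 4 days; the read-out is not stated. Concentration: 50 µM. Higher reads as more growth inhibition (inferred: compounds with an IC50 in retests scored well above the rest). About 69,000 compounds were tested under these conditions; 0.54% (about 370) showed 50% or more at least once.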
Mtb glucose medium: 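Whole-cell growth test on Mycobacterium tuberculosis, read after 3 days in glucose-containing 7H9 medium; the read-out is not stated. Tested at 50 µM. The record gives no direction; compounds that gave an IC50 in retests scored well above the rest, so higher reads as more growth inhibition. About 69,000 compounds were tested under these conditions; 1.1% (about 760) showed 50% or more at least once.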

compound	Mtb cholesterol medium	Mtb glucose medium
COc1cc(-c2cnnc(NCCCOC(C)C)n2)cc(OC)c1OC	-11.69 and 3.293	-32.52
CCS(=O)(=O)Nc1cnn(Cc2cccc(Cl)c2)c1	1.633	14.82
CC(O)CN1CCN(Cc2cccc(C(=O)N(C)C)c2)CC1 (centres undefined)	4.07	0.3792
CCc1ccc(CN2CCNC(C(=O)N3CCN(C)CC3)C2)o1 (centres undefined)	-4.249 and -11.07	13.5
CS(=O)(=O)N[C@@H]1CCN(Cc2nccs2)[C@H]1Cc1ccncc1.O=C(O)C(F)(F)F.O=C(O)C(F)(F)F	12.31	-4.817 and -6.89
CCOCC(O)CN1CCN(C(=O)c2ccccc2F)CC1 (centres undefined)	11.82	-15.75
CCCn1[nH]cc/c1=N\C(=O)CN1CCC[C@H]1CO	-18.04	-12.39
O=C(COc1ccccc1NCc1ccc(F)cc1)N1CCOCC1	9.841	-18.54
Cc1cc(N2CCC(c3nnc(CN(C)C)n3C3CC3)CC2)ccn1	-31.69	-26.41 and -22.48
CN1CCCN(C(=O)c2cnc(C(C)(C)C)nc2O)CC1	-26.05	-8.416
CCCC(=O)N1CCC(c2cc[nH]n2)C1 (centres undefined)	-6.608	12.73
CC(C)c1cc(C2CCCN2C(=O)CN2C(=O)OC(C)(C)C2=O)no1 (centres undefined)	-15.33	-9.517
CCCS(=O)(=O)N1CCN(c2ccnc(N3CCCCC3)n2)CC1	19.14	28.84 and 19.63
CC(Nc1nc2c(cnn2C)c(=O)[nH]1)c1ccccn1 (centres undefined)	-6.148	-22.27
CN(C)C(=O)NCc1ncn2c1CN(Cc1ccco1)CCC2.O=C(O)C(F)(F)F	-7.616	-10.91 and 3.951
Cc1cnn(CC2CCCN2CC(=O)Nc2cc(C(C)(C)C)no2)c1 (centres undefined)	8.121	24.2
[H][C@@]12C[C@H](C(=O)NCC3CC3)CN(Cc3ccsc3)[C@]1([H])CCO2	-12.92	-16.63
N#Cc1c(C2CC2)cc(-c2ccc(O)cc2)nc1N	12.53	-0.01721
Cc1nc(C2CCCN(C(=O)Cn3ccccc3=O)C2)sc1C (centres undefined)	1.419	-30.84 and 5.307
CC(C1CCN(Cc2ccc(N(C)C)nc2)CC1)N1CCOCC1 (centres undefined)	-14.14	4.744
[H][C@]12CC[C@]([H])(CN(C(=O)Cc3cnc(C)[nH]c3=O)C1)N(CC1CCC1)C2	7.43	0.8907 and 27.13
C=C(Cl)CN(C)C1CCN(CCc2ccccn2)CC1	8.414	-18.33 and 4.579
CS(=O)(=O)N1CCCC(Cc2cnc(Br)cn2)CC1 (centres undefined)	-10.06	-0.07781
Cc1n[nH]c(C)c1CC(=O)N1CCC2(CC1)CN(C)CCN2C	-5.467	3.487
COC(=O)c1ccc(N2CCN(CCS(C)(=O)=O)C(C)C2)cc1 (centres undefined)	-4.499	-11.62
CN(Cc1cnn(C)c1)S(=O)(=O)N1CCCCCC1	1.014 and 4.913	-2.92
[H][C@@]12CN(CC)C[C@]1(C(=O)NCC1CC1)CCCN2c1ncccn1	-5.066	-12.51
CCc1ccccc1OC1CN(C(=O)c2sccc2N)C1	1.321 and 7.743	13.57
CSCC(=O)N1CCCCC1Cn1cc(C)cn1 (centres undefined)	-4.676	16.05
CNC(=O)C(C)(C)N1CCC[C@H]1C(=O)NCC(C)C.Cl	2.433	-8.368 and -2.148
CCn1c(CN(C)C)nnc1C1CCN(Cc2ccncc2)CC1	-10.19 and -7.669	-7.074
[H][C@]12CCCCN1CCC[C@@]2(O)CNCCCOc1cccnc1	-5.819	-44.03 and -6.036
CC(C)Oc1ccc(C(=O)N2CCC(Nc3cccnn3)CC2)cn1	11.56	12.86
COCCN1CCC(NCc2ccc(C#N)cc2)C1 (centres undefined)	4.825	29.67
CCc1c(C)nc2n(c1=O)CC(C(=O)Nc1nccs1)CS2 (centres undefined)	-18.72	-14.56
CCc1nnc(C2Cc3ccccc3CN2Cc2cc(C)on2)o1 (centres undefined)	1.043	-1.347
Cc1cnc2c(c1NCc1cccs1)c(=O)n(C)c(=O)n2C	-21.76	-19.05
CN(c1ccc(OCc2cnc(Cl)s2)cc1)S(C)(=O)=O	23.23	19.41
COc1c(CNCCNC(=O)c2cccc(C)c2)c(C)nn1C.Cl	-1.887	-22.17 and 6.302
C1CCC(NCC2(N3CCOCC3)CCSC2)C1 (centres undefined)	-27.85	-26.99
CCOc1ccccc1NC(=O)N(CCO)Cc1ccsc1	3.843	0.9728
CCc1c(C)nn(CCNC(=O)c2cnn[nH]2)c1C	-46.08	-24.2
Cn1cc(CNC2CCc3ncnn3C2)c(-c2cccnc2)n1 (centres undefined)	-15.4	-18.16
[H][C@@]12CCCCN(C)[C@]1([H])[C@@H](c1ccccc1)CCN2S(=O)(=O)N1CCCC1	0.1612	21.57
CN(Cc1noc(C2CC2)n1)C1CCCN(c2cccnn2)C1 (centres undefined)	-8.848	-1.634
CC(C)Oc1ccc(C(=O)N2CCCCC2Cn2cccn2)cn1 (centres undefined)	1.027	-3.42
CC(C)c1noc(C(C)N2CCN(Cc3noc(C4CC4)n3)CC2)n1 (centres undefined)	-8.793	-24.88 and -1.441
Cc1ccc(CN(C)C(=O)CN2CC(n3cccn3)C2)o1	-15.67	-7.329 and -29.62
CCc1csc(CNC2CCN(c3ccc(C)cc3)CC2)n1	11.43	-4.412
COc1ccc2c(ccn2CCN)c1	-1.042	12.97
Cc1oc(-c2ccsc2)nc1CNCCn1cccn1	0.6984	17.24 and 4.513
CN(C(=O)CNc1ccc(C#N)cc1)C1CCN(c2ccccn2)CC1	4.109	35.7
CS(=O)(=O)c1cn[nH]c1C1CCCN(C(=O)CN2CCOCC2)C1 (centres undefined)	-11.83	-15.26
O=C(CN1CCCC(O)C1)NC(=O)NCc1cccs1 (centres undefined)	-21.9	-10.59 and 0.09854
O=C(O)C(F)(F)F.[H][C@@]12CN(Cc3cccc(C)n3)C[C@]1([H])OCCN2c1cnccn1	-15.91	-1.5
CN(C)[C@@H]1CCN(c2ncccn2)[C@H]1Cc1ccncc1.O=C(O)C(F)(F)F.O=C(O)C(F)(F)F	-16.6	17.54
CN1CCC2(C=C(C(=O)N3CCCC3)c3ccccc32)CC1.O=C(O)C(F)(F)F	-8.459	-2.393 and -6.308
Cn1nccc1C(=O)N1CCC(c2ncc(Cl)cc2S(C)(=O)=O)CC1	-17.35 and -5.529	-35.51

For reference, 7 entries once more:

compound,Mtb cholesterol medium,Mtb glucose medium
[H][C@@]12CN(CC)C[C@]1(C(=O)NCC1CC1)CCCN2c1ncccn1,-5.066,-12.51
CCOc1ccccc1NC(=O)N(CCO)Cc1ccsc1,3.843,0.9728
CN(C)C(=O)NCc1ncn2c1CN(Cc1ccco1)CCC2.O=C(O)C(F)(F)F,-7.616,-10.91 and 3.951
[H][C@]12CCCCN1CCC[C@@]2(O)CNCCCOc1cccnc1,-5.819,-44.03 and -6.036
C=C(Cl)CN(C)C1CCN(CCc2ccccn2)CC1,8.414,-18.33 and 4.579
Cc1cc(N2CCC(c3nnc(CN(C)C)n3C3CC3)CC2)ccn1,-31.69,-26.41 and -22.48
CCc1csc(CNC2CCN(c3ccc(C)cc3)CC2)n1,11.43,-4.412

Data taken from ChEMBL document CHEMBL3988442, “University of Dundee, Small-Polar-MMV Screening Library” (2021).